The results in this text go back to patent publication US20250154261A1.

Chains of the proteins cited; added tags and fusions are not shown. Lines headed by an entry give the natural chain unless they say otherwise; changes in a name come on top.
UniProt P20138: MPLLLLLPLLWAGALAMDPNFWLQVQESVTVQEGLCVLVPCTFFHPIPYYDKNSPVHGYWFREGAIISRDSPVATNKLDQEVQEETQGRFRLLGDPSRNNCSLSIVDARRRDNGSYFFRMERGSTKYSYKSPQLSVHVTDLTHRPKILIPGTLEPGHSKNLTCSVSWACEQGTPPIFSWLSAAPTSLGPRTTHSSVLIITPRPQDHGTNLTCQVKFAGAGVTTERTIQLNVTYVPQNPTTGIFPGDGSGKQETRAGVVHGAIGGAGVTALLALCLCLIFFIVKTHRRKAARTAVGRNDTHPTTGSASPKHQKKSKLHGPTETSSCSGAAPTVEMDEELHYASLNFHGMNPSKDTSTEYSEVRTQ

B1: ADI-11830 Fab (Fab, V domains shown)
VH: EVQLVESGGGLVQPGGSLRLSCAASGFTFSSYWMSWVRQAPGKGLEWVANINTDGSEVYYVDSVKGRFTISRDNAKNSLYLQMNSLRAEDTAVYYCARDVGPGIAYQGHFDYWGQGTLVTVSS
VL: DIQMTQSPSSLSASVGDRVTITCRASQVIYSYLNWYQQKPGKAPKLLIYAASSLKSGVPSRFSGSGSGTDFTLTISSLQPEDFATYYCQQVYDTPLTFGGGTKVEIK
B2: ADI-11826 Fab (Fab, V domains shown)
VH: EVQLVESGGGLVQPGGSLRLSCAASGFTFPGYWMSWVRQAPGKGLEWVANINQDGSEVYYVDSVKGRFTISRDNAKNSLYLQMNSLRAEDTAVYYCAREANYYGNVGDDYWGQGTLVTVSS
VL: B1 VL with V28S, S31N, L54T, K55Q, V91A, Y92F, D93H, T94V, L96I
B3: ADI-11825 Fab (Fab, V domains shown)
VH: B2 VH with P30G, V58E
VL: B1 VL with V28S, S31N, S53N, K55H, V91A, Y92F, D93H, T94V, L96I
B4: ADI-11828 Fab (Fab, V domains shown)
VH: B1 VH with T53Q
VL: B1 VL with V28S, S31Y, L54R, K55Q
B5: ADI-11839 Fab (Fab, V domains shown)
VH: QVQLVQSGAEVKKPGASVKVSCKASGYTFSNYYMHWVRQAPGQGLEWMGWINPFSGGTRYAQKFQGRVTMTRDTSTSTVYMELSSLRSEDTAVYYCARDVGSSAYYYMDVWGKGTTVTVSS
VL: DIQMTQSPSSVSASVGDRVTITCEASKGISSWLAWYQQKPGKAPKLLIYAASDLQSGVPSRFSGSGSGTDFTLTISSLQPEDFATYYCQQAFLFPPTFGGGTKVEIK
B6: ADI-10157 Fab (Fab, V domains shown)
VH: QVQLQESGPGLVKPSETLSLTCTVSGGSISSYYWSWIRQPPGKGLEWIGSIYYSGSTNYNPSLKSRVTISVDTSKNQFSLKLSSVTAADTAVYYCARVGGVYSTIETYGMDVWGQGTTVTVSS
VL: EIVMTQSPATLSVSPGERATLSCRASQSVSSNLAWYQQKPGQAPRLLIYGASTRATGIPARFSGSGSGTEFTLTISSLQSEDFAVYYCQQYTVYPPTFGGGTKVEIK
B7: ADI-11807 Fab (Fab, V domains shown)
VH: EVQLVESGGGLVQPGGSLRLSCAASGFTFGSYWMSWVRQAPGKGLEWVATIKQDGSEKSYVDSVKGRFTISRDNAKNSLYLQMNSLRAEDTAVYYCARPLNAGELDVWGQGTMVTVSS
VL: DIQMTQSPSTLSASVGDRVTITCRASQSISSWLAWYQQKPGKAPKLLIYEASSLESGVPSRFSGSGSGTEFTLTISSLQPDDFATYYCQQSQSYPPITFGGGTKVEIK
B8: ADI-11809 Fab (Fab, V domains shown)
VH: B7 VH with G30P, Q53R, S59G
VL: B7 VL
B9: ADI-10177 Fab (Fab, V domains shown)
VH: B7 VH with G30S, T50N, S59Y
VL: DIQMTQSPSTLSASVGDRVTITCRASQSISSWLAWYQQKPGKAPKLLIYEASSLESGVPSRFSGSGSGTEFTLTISSLQPDDFATYYCQQLESYPLTFGGGTKVEIK
B10: ADI-10159 Fab (Fab, V domains shown)
VH: EVQLVESGGGLVQPGGSLRLSCAASGFTFSSYGMSWVRQAPGKGLEWVANIKQDGSEKYYVDSVKGRFTISRDNAKNSLYLQMNSLRAEDTAVYYCAREGGPYYDSSGYFVYYGMDVWGQGTTVTVSS
VL: DIQMTQSPSTLSASVGDRVTITCRASQSISSWLAWYQQKPGKAPKLLIYDASSLESGVPSRFSGSGSGTEFTLTISSLQPDDFATYYCQQYESFPTFGGGTKVEIK
B11: ADI-11776 Fab (Fab, V domains shown)
VH: EVQLLESGGGLVQPGGSLRLSCAASGFTFSKYTMSWVRQAPGKGLEWVSAIVGSGESTYFADSVKGRFTISRDNSKNTLYLQMNSLRAEDTAVYYCAREGGPYYDSSGYFVYYGMDVWGQGTTVTVSS
VL: B10 VL with D50K, E92D, S93D, F94L
B12: ADI-11819 Fab (Fab, V domains shown)
VH: EVQLVESGGGLVKPGGSLRLSCAASGFTFSSYAMSWVRQAPGKGLEWVSSISSSSEGIYYADSVKGRFTISRDNAKNSLYLQMNSLRAEDTAVYYCAREGGPYYDSSGYFVYYGMDVWGQGTTVTVSS
VL: B10 VL with Q27N, D50E, L54T, E55K, E92D, S93D, F94L
B13: ADI-10161 Fab (Fab, V domains shown)
VH: EVQLVESGGGLVQPGGSLRLSCAASGFTFSSYWMSWVRQAPGKGLEWVANINQDGSEKYYVDSVKGRFTISRDNAKNSLYLQMNSLRAEDTAVYYCAREGGDSWYHAFDIWGQGTMVTVSS
VL: B5 VL with E24R, K27Q, D53N, A91K, F92L, L93S, F94L, P96L

Where a chain is given by its changes, count along the chain named. Results are given in words; binding and its absence hold for the method and conditions named. Some results given as binding are weak or reduced against the parent protein; the word gives no strength.

One assay concerns the target V domain of human CD33 (human) (UniProt P20138). The experiment in a line: SPR captured Fab.
As to B1, the binding result is on record as “binds”. Same read-out and setting: for B2 the value was “binds”; for B3, “binds”. As for B4, the binding result was “binds”. Turning to B5, the binding entry is listed as “binds”. As for B6, the binding entry is on record as “binds”.

For the molecule B7, the binding result is “binds”. The same measure, in the same setting: for B8 the value was “binds”; for B9, “binds”; for B10, “binds”. As to B11, the binding entry is recorded as “binds”.

As for B12, the binding entry is listed as “binds”.

A further assay concerns the target Deglycosylated V domain of human CD33 (human) (UniProt P20138). The experiment in a line: SPR captured Fab.
With B1, the binding result was “binds”. B2: the binding result is recorded as “binds”. As for B3, the binding result was “binds”.

Consider B4, for which the binding result is recorded as “binds”. B5: the binding entry is recorded as “binds”. Consider B13, for which the binding result is listed as “binds”. Still for that read-out and setting: the result for B6 reads “binds”.

On to B7, for which the binding result was “binds”. On the same count and under the same terms, the result for B8 reads “binds”. For B9, the binding result is listed as “binds”. For the molecule B10, the binding entry is on record as “binds”.

With B11, the binding result is given as “binds”.

For the molecule B12, the binding entry is reported as “binds”.
